Record: PubChem BioAssay AID602196 (INSERM, 2012)

Assay: 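Genes whose knock-down alters cisplatin killing of lung cancer cells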
Cell system: human A549 lung cancer cells
Reagent: siRNA pair against human genes
Time to read-out: 48 h transfection before cisplatin; time from cisplatin to read-out not stated
Treatment: cisplatin at a dose killing half of control-siRNA cells; exact dose and duration not given
Read-out: 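Cisplatin cell death as a shift from the 50% death seen with control siRNA; siRNAs toxic or growth-blocking alone scored 0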
Reading the numbers: two-siRNA summed score (-2 to +2): higher = both siRNAs protect from cisplatin killing; -2 means both sensitise
Rule for the call: 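siRNAs harmful alone (LDH or WST-1) get 0; others get +1 for less and -1 for more cisplatin killing; genes are active when the two siRNAs give the same sign, summing to ±2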
Calls: active = both siRNAs shift cisplatin killing the same way; inactive = no consistent shift, or siRNA harmful alone
The whole screen tested about 23,000 reagents; this is a random part of them. Of all reagents, 455 (2%) were called active. 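Active includes both protection and sensitisation; some change values fall well beyond the stated -50 to +50 range.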 A number with no mark means an inactive call. Not all columns of the deposit are shown. No sequences are given here. The record does not give: the amount of reagent.

gene symbol | two-siRNA summed score (-2 to +2)
TEAD2 | 0
PHACTR4 | 0
LOC392591 | 0
EFCAB13 | -1
ICAM5 | 0
C19orf48P | 0
NOB1 | 0
EPHX1 | 0
ATP1B4 | 0
TMSB10 | 0
C10orf90 | 0
PASD1 | 0
SLC67A1 | 0
VARS2 | 0
LOC400533 | 0
HSALR1 | 0
GRIK5 | -1
UGT8 | 0
LOC143497 | 0
RNASE11 | 0
SLPI | 1
KCNIP1 | -1
FLJ46552 (retired record) | 0
SLN | 1
SORT1 | 0
OXGR1 | -1
HFE | 0
LMAN2L | 0
MLX | 0
NFATC4 | -1
TEKT3 | 0
BCL3 | 1
LOC286177 | 0
ABCC10 | 0
ZSCAN2 | 0
RYBP | 0
ARHGAP25 | 0
SERF2 | 0
RNF128 | 0
THUMPD1 | 0
LOC440979 | 0
MGST3 | 0
MUC5AC | 0
LOC389112 | 0
EDRF1-DT | 1
DKFZP434B061 | 0
LOC442065 | 0
EEF1D | 0
MAP3K7CL | 1
PSPH | 0
ZKSCAN4 | 0
THOC5 | 0
SF3A1 | 0
MRPL57 | 0
MDH2 | -1
DACH2 | 0
SPTB | 0

Part of the list above, reformatted:
gene symbol,two-siRNA summed score (-2 to +2)
PSPH,0
ZKSCAN4,0
THOC5,0
SF3A1,0
MRPL57,0
MDH2,-1
